The list is a part of this screen's results and no random one: its compounds were picked by chemical class. Other doses and runs of a compound may be missing. T/C: endpoint of the treated group in % of that of the vehicle group. Some entries give survivors of the animals treated and no T/C: the source holds a T/C of zero for them, seemingly a mark for toxic or unscored doses. Some doses without a T/C left all or most animals alive at the check, yet need not have been tolerated: the source hardly ever lists a survival T/C far under the control, and the zero likely stands for such cases as well. Counts of survivors are from the toxicity check (mostly the fifth day) where no day follows; animals may have died later. Schedule codes are those of the source, taken here to give the interval after Q, in days (D) or hours (H), and the number of doses after X. Some entries hold several experiments; their values stand side by side, smallest first. For survival time, this PubChem deposit counts one and a half times the control or more as active, and values a quarter to a half above the control carry no call in these data; other NCI protocols may use other cut-offs. Some schedules carry Z or #; the key to these is not given. Some T/C values are marked as having no survivor count here; that says nothing about deaths at the dose. Some T/C values are followed by the survivors on the day toxicity was checked, most often the fifth; without a count or a note in brackets, all were alive then.

From PubChem BioAssay AID248 (DTP/NCI, 2004) come the findings set out here.

This experiment relates to L1210 leukemia ip in BDF1 mice, survival T/C. The experiment can be described thus: NCI In Vivo Anticancer Drug Screen. Data for tumor model L1210 Leukemia (intraperitoneal) in B6D2F1 (BDF1) mice. Particulars: T/C endpoint: mean survival time, higher T/C = longer survival.
Setting [1] is: dose: 100.0 mg/kg/injection, schedule: Q01DX001 (ip), vehicle: saline.
[2] abbreviates: dose: 200.0 mg/kg/injection, schedule: Q01DX001 (ip), vehicle: saline.
Where [3] appears, read: dose: 400.0 mg/kg/injection, schedule: Q01DX001 (ip), vehicle: saline.
Where [4] appears, read: dose: 100.0 mg/kg/injection, schedule: Q04DX003 (ip), vehicle: Klucel (hydroxypropylcellulose) (HPC).
The mark [5] stands for this setting: dose: 200.0 mg/kg/injection, schedule: Q04DX003 (ip), vehicle: Klucel (hydroxypropylcellulose) (HPC).
Setting [6] is: dose: 400.0 mg/kg/injection, schedule: Q04DX003 (ip), vehicle: Klucel (hydroxypropylcellulose) (HPC).
The mark [7] stands for this setting: dose: 100.0 mg/kg/injection, schedule: Q04DX002 (ip), vehicle: saline with Tween-80.
Where [8] appears, read: dose: 200.0 mg/kg/injection, schedule: Q04DX002 (ip), vehicle: saline with Tween-80.
The mark [9] stands for this setting: dose: 100.0 mg/kg/injection, schedule: Q04DX003 (ip), vehicle: saline.
[10] abbreviates: dose: 200.0 mg/kg/injection, schedule: Q04DX003 (ip), vehicle: saline.
[11] abbreviates: dose: 400.0 mg/kg/injection, schedule: Q04DX003 (ip), vehicle: saline.

As for `O=C(O)C1(O)c2ccccc2-c2ccccc21`, the T/C is, setting by setting: (dose: 100.0 mg/kg/injection, schedule: Q04DX003 (ip), vehicle: saline with Tween-80) 97 % of control [survivor count not shown]; (dose: 200.0 mg/kg/injection, schedule: Q04DX003 (ip), vehicle: saline with Tween-80) 91 % of control [survivor count not shown]; (dose: 400.0 mg/kg/injection, schedule: Q04DX003 (ip), vehicle: saline with Tween-80) 102 % of control [survivor count not shown].

As to `O[As](O)O.S=C(S)c1ccccc1S`, the T/C under setting [1] is 102 % of control. Further, the survivor count runs as follows: under setting [2], 3 of 6; under setting [3], 0 of 6.

As for `CCN(CCCl)C1c2ccccc2-c2ccccc21`, the T/C reads like this: (dose: 12.5 mg/kg/injection, schedule: Q04DX002 (ip), vehicle: Klucel (hydroxypropylcellulose) (HPC)) 101 % of control; (dose: 25.0 mg/kg/injection, schedule: Q04DX002 (ip), vehicle: Klucel (hydroxypropylcellulose) (HPC)) 104 % of control; (dose: 50.0 mg/kg/injection, schedule: Q04DX002 (ip), vehicle: Klucel (hydroxypropylcellulose) (HPC)) 111 % of control.

For `C1CN1.C=CC(=O)OCCOc1ccccc1`, the T/C reads like this: (dose: 20.0 mg/kg/injection, schedule: Q01DX009 (ip), vehicle: Klucel (hydroxypropylcellulose) (HPC)) 103 % of control; (dose: 40.0 mg/kg/injection, schedule: Q01DX009 (ip), vehicle: Klucel (hydroxypropylcellulose) (HPC)) 105 % of control; (dose: 80.0 mg/kg/injection, schedule: Q01DX009 (ip), vehicle: Klucel (hydroxypropylcellulose) (HPC)) 97 % of control; (dose: 100.0 mg/kg/injection, schedule: Q01DX009 (ip), vehicle: Klucel (hydroxypropylcellulose) (HPC)) 103 % of control [4 of 6 alive]; under setting [4], 102 % of control [5 of 6 alive]; under setting [5], 109 % of control. Besides, the T/C under setting [6] is 89 % of control [4 of 6 alive]. The survivor count is, setting by setting: (dose: 200.0 mg/kg/injection, schedule: Q01DX009 (ip), vehicle: Klucel (hydroxypropylcellulose) (HPC)) 2 of 6; (dose: 400.0 mg/kg/injection, schedule: Q01DX009 (ip), vehicle: Klucel (hydroxypropylcellulose) (HPC)) 0 of 6.

For `CCCCOP(C)(=S)OCCCC`, the T/C reads like this: under setting [7], 111 % of control [survivor count not shown]; under setting [8], 111 % of control [survivor count not shown].

Consider `CC1CCOP(c2ccccc2)O1` (centres undefined), for which the T/C is 96 % of control under setting [1], 96 % of control under setting [2] and 102 % of control under setting [3].

Consider `C1CN1.NC(=O)CC(N)C(=O)O` (centres undefined), for which the T/C under setting [9] is 104 % of control and the T/C under setting [10] is 112 % of control. Also, the survivor count under setting [11] is 0 of 6.

As for `CC[C@@H](C)[C@@H]1NC(=O)/C(=C(\C)O)C1=O.c1ccc(CNCCNCc2ccccc2)cc1`, the T/C by setting is: (dose: 5.0 mg/kg/injection, schedule: Q01DX Z (ip), vehicle: carboxymethylcellulose (CMC)) 102 % of control; (dose: 10.0 mg/kg/injection, schedule: Q01DX Z (ip), vehicle: carboxymethylcellulose (CMC)) 100 % of control; (dose: 20.0 mg/kg/injection, schedule: Q01DX Z (ip), vehicle: carboxymethylcellulose (CMC)) 107 % of control; (dose: 40.0 mg/kg/injection, schedule: Q01DX Z (ip), vehicle: carboxymethylcellulose (CMC)) 98 and 109 % of control; (dose: 80.0 mg/kg/injection, schedule: Q01DX Z (ip), vehicle: carboxymethylcellulose (CMC)) 95 % of control; (dose: 160.0 mg/kg/injection, schedule: Q01DX Z (ip), vehicle: carboxymethylcellulose (CMC)) 106 % of control. Also, the survivor count runs as follows: (dose: 320.0 mg/kg/injection, schedule: Q01DX015 (ip), vehicle: carboxymethylcellulose (CMC)) 0 of 6; (dose: 640.0 mg/kg/injection, schedule: Q01DX015 (ip), vehicle: carboxymethylcellulose (CMC)) 0 of 6.

As for `ClCCN(CCCl)c1ccccc1.[C-]#[O+].[C-]#[O+].[C-]#[O+].[Cr]`, the T/C under setting [4] was 113 % of control and the T/C under setting [5] was 103 % of control. The survivor count under setting [6] was 6 of 6.

Turning to `CONC(=O)NP(=O)(NC(=O)NOC)NC(=O)NOC`, the T/C reads like this: (dose: 50.0 mg/kg/injection, schedule: Q01DX001 (ip), vehicle: saline) 105 % of control; (dose: 100.0 mg/kg/injection, schedule: Q01DX001 (ip), vehicle: saline, evaluated on day 30) 98 % of control; (dose: 100.0 mg/kg/injection, schedule: Q01DX001 (ip), vehicle: saline, run until all animals had died) 121 % of control; (dose: 200.0 mg/kg/injection, schedule: Q01DX001 (ip), vehicle: saline, evaluated on day 30) 96 % of control; (dose: 200.0 mg/kg/injection, schedule: Q01DX001 (ip), vehicle: saline, run until all animals had died) 96 % of control; (dose: 400.0 mg/kg/injection, schedule: Q01DX001 (ip), vehicle: saline, evaluated on day 30) 93 % of control. For the same molecule, under “dose: 400.0 mg/kg/injection, schedule: Q01DX001 (ip), vehicle: saline, run until all animals had died”, the T/C was 100 % of control.

On to `O=[N+]([O-])c1cc([N+](=O)[O-])c(S(=O)(=O)[O-])c([N+](=O)[O-])c1.c1ccc2cc3[s+]c4ccccc4cc3cc2c1`, for which the T/C is 89 % of control [survivor count not shown] (dose: 100.0 mg/kg/injection, schedule: Q01DX001 (ip), vehicle: acetone); 95 % of control [survivor count not shown] (dose: 200.0 mg/kg/injection, schedule: Q01DX001 (ip), vehicle: acetone); 103 % of control [survivor count not shown] (dose: 400.0 mg/kg/injection, schedule: Q01DX001 (ip), vehicle: acetone).

As to `O=P(Cl)(Oc1ccccc1)c1ccccc1` (centres undefined), the T/C is, setting by setting: under setting [7], 93 % of control; (dose: 200.0 mg/kg/injection, schedule: Q01DX009 (ip), vehicle: saline with Tween-80) 98 % of control; under setting [8], 101 % of control; (dose: 400.0 mg/kg/injection, schedule: Q01DX009 (ip), vehicle: saline with Tween-80) 88 % of control. In addition, the survivor count (dose: 400.0 mg/kg/injection, schedule: Q04DX002 (ip), vehicle: saline with Tween-80) is 1 of 3.

For `[O-]/[N+](C/[N+]([O-])=N/O)=N\O`, the T/C (dose: 50.0 mg/kg/injection, schedule: Q01DX009 (ip), vehicle: saline) is 95 % of control; the T/C under setting [1] was 88 % of control; the T/C (dose: 100.0 mg/kg/injection, schedule: Q01DX009 (ip), vehicle: saline) was 98 % of control; the T/C under setting [9] is 90 % of control; the T/C under setting [2] is 93 % of control; the T/C (dose: 200.0 mg/kg/injection, schedule: Q01DX009 (ip), vehicle: saline) is 95 % of control. In addition, under setting [10], the T/C is 95 % of control. Moreover, the survivor count is 1 of 6 under setting [3] and 1 of 6 under setting [11].

As to `ClCCN1CC2CCCC(CC2)C1`, the T/C (dose: 25.0 mg/kg/injection, schedule: Q04DX003 (ip), vehicle: saline) was 106 % of control and the T/C (dose: 50.0 mg/kg/injection, schedule: Q04DX003 (ip), vehicle: saline) was 107 % of control [4 of 6 alive]. The survivor count under setting [9] was 0 of 6 and 1 of 6; the survivor count under setting [10] is recorded as 0 of 6; the survivor count under setting [11] is listed as 0 of 6.

As to `O=[N+]([O-])c1cc([N+](=O)[O-])c(NCCO)c([N+](=O)[O-])c1`, the T/C was 99 % of control [survivor count not shown] (dose: 100.0 mg/kg/injection, schedule: Q04DX003 (ip), vehicle: acetone); 99 % of control [survivor count not shown] (dose: 200.0 mg/kg/injection, schedule: Q04DX003 (ip), vehicle: acetone); 86 % of control [survivor count not shown] (dose: 400.0 mg/kg/injection, schedule: Q04DX003 (ip), vehicle: acetone).
